Measured values as given in patent US20200245667A1, “OLIGOSACCHARIDE COMPOSITIONS AND THEIR USE DURING TRANSITIONAL PHASES OF THE MAMMALIAN GUT MICROBIOME” (EVOLVE BIOSYSTEMS, INC., priority 2017, published 2020).
At least one compound was matched to its structure with a doubt left.

How the values were obtained:
Test in all cases: free sugar consumption by intestinal microbiota
Assay type in all cases: cell-based
L. casei = tested on: L. casei
L. gasseri = tested on: L. gasseri
L. mucosae = tested on: L. mucosae
L. johnsonii = tested on: L. johnsonii
L. fermentum = tested on: L. fermentum
B. infantis = tested on: B. infantis
Excerpt: (§1) A number of bacterial species are provided in Table 2, since the inventors have discovered preferred carbon source(s) for certain bacteria. Certain embodiments of the invention described herein would include one or more of any of the species found in Table 2.

B. bifidum = tested on: B. bifidum
Excerpt: as §1

B. longum = tested on: B. longum
Excerpt: as §1

B. breve = tested on: B. breve
Excerpt: as §1

L. acidophilus = tested on: L. acidophilus
L. reuteri = tested on: L. reuteri
L. rhamnosus = tested on: L. rhamnosus
L. crispatus = tested on: L. crispatus
L. brevis = tested on: L. brevis
B. adolescentis = tested on: B. adolescentis
B. animalis = tested on: B. animalis
L. salivarius = tested on: L. salivarius
L. plantarum = tested on: L. plantarum

Measured: preferences for free sugar consumption

CC(=O)N[C@H]1C(O)O[C@H](CO)[C@@H](O)[C@@H]1O[C@@H]1O[C@H](CO)[C@H](O)[C@H](O)[C@H]1O (stereo partly drawn) [Lacto-N-Biose]
+: L. casei | B. infantis | B. bifidum | B. longum | B. breve
−: all other assays above
